Reference: article PMC4821604
No constants are given. Whether binding was seen depends on the method and setting. In cells and extracts the contact can be indirect. Some results given as binding are weak or reduced against the parent protein; the word gives no strength.

Chains of the proteins cited; added tags and fusions are not shown.
UniProt Q9W0T1: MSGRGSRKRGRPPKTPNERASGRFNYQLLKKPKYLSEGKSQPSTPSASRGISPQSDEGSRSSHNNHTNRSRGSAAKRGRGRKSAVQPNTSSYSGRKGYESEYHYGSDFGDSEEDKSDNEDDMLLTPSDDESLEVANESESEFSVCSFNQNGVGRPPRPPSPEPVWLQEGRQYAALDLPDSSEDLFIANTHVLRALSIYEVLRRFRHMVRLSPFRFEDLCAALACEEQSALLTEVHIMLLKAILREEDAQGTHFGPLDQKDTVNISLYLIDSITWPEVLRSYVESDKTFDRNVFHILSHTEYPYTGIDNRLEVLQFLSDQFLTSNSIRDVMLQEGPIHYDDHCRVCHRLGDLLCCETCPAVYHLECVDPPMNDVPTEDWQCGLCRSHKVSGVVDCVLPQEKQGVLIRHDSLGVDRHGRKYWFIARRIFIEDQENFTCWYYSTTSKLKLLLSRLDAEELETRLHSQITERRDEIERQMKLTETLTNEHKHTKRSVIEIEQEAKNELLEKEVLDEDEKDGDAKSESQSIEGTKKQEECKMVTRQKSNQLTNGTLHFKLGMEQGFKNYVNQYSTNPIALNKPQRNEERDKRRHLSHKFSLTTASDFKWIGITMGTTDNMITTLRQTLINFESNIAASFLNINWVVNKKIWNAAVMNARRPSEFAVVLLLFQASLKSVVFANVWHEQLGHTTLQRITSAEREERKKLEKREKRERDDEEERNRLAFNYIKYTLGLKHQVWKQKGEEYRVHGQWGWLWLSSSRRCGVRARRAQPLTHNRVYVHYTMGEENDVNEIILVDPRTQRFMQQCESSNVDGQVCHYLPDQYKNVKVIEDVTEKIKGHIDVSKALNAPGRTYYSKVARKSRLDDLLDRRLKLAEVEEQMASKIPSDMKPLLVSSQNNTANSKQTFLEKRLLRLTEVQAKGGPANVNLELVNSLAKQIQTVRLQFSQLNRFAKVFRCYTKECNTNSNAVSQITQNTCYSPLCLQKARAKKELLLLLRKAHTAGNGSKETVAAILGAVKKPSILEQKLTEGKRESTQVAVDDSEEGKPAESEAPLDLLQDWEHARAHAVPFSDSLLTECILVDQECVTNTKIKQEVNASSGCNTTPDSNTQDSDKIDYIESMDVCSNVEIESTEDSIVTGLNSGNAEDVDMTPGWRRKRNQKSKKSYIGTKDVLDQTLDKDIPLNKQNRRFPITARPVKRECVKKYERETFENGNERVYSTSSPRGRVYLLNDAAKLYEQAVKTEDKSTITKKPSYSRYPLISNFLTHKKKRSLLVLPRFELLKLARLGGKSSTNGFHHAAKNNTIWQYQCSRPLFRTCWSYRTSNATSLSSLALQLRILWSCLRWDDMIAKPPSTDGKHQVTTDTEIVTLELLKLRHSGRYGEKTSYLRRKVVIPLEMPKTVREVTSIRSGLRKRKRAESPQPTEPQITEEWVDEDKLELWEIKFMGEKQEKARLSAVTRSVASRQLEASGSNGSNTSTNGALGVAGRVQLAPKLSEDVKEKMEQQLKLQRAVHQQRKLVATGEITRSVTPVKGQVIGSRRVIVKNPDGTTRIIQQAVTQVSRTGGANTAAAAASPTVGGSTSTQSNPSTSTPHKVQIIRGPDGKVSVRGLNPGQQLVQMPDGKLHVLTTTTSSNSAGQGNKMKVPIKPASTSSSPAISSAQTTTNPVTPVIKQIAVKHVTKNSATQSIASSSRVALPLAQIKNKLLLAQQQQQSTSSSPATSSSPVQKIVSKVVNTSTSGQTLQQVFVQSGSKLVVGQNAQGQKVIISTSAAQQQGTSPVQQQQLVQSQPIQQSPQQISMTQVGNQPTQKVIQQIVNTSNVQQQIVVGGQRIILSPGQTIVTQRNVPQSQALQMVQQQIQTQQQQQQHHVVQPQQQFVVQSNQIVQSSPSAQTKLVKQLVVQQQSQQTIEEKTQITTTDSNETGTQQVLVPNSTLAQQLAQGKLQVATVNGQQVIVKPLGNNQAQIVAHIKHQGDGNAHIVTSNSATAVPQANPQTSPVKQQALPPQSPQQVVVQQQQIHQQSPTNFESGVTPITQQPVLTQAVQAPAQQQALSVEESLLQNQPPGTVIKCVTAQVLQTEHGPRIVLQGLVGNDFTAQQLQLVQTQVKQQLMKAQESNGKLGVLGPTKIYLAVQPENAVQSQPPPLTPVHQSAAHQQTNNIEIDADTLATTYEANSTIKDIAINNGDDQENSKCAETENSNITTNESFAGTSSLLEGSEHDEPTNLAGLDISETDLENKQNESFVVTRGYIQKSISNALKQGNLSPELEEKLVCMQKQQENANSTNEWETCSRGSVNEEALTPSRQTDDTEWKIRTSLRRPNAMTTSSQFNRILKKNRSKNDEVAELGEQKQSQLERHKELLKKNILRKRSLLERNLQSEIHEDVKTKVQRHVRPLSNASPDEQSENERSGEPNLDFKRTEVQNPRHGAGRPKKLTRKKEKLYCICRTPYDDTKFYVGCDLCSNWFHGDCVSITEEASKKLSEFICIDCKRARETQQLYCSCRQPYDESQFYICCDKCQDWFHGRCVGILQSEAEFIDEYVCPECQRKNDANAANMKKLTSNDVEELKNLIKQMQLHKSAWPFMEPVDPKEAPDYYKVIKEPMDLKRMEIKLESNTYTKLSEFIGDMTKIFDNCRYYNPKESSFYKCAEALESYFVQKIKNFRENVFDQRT
UniProt Q7JW27: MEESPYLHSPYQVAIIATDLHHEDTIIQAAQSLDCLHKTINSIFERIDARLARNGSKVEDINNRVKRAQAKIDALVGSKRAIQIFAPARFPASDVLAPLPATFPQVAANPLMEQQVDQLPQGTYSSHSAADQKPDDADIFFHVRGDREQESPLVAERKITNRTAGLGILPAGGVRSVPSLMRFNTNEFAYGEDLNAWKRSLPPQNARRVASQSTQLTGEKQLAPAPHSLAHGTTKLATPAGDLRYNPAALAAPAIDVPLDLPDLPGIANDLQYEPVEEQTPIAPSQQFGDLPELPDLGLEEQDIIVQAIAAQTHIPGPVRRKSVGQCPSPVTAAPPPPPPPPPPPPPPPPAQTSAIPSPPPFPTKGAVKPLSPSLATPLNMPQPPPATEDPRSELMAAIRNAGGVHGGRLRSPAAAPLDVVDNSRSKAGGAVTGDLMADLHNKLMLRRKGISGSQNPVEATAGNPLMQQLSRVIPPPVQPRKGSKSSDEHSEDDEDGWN

Experiments:
[1] = target: T1, Centrosomal Protein 190 (CP190) (Drosophila (endogenous in S2 cells)) (UniProt Q24478); experiment: co-IP; S2 soluble nuclear fraction (extracted at 400 mM KCl, dialysed to 100 mM KCl) diluted into 1xPBS, 5 mg/ml BSA, 0.1% Tween-20; antibody-coated Protein G Dynabeads, 2.5 h, 4°C; four washes in 1xPBS, 0.1% Tween-20; blot, 5% input
T1 sequence: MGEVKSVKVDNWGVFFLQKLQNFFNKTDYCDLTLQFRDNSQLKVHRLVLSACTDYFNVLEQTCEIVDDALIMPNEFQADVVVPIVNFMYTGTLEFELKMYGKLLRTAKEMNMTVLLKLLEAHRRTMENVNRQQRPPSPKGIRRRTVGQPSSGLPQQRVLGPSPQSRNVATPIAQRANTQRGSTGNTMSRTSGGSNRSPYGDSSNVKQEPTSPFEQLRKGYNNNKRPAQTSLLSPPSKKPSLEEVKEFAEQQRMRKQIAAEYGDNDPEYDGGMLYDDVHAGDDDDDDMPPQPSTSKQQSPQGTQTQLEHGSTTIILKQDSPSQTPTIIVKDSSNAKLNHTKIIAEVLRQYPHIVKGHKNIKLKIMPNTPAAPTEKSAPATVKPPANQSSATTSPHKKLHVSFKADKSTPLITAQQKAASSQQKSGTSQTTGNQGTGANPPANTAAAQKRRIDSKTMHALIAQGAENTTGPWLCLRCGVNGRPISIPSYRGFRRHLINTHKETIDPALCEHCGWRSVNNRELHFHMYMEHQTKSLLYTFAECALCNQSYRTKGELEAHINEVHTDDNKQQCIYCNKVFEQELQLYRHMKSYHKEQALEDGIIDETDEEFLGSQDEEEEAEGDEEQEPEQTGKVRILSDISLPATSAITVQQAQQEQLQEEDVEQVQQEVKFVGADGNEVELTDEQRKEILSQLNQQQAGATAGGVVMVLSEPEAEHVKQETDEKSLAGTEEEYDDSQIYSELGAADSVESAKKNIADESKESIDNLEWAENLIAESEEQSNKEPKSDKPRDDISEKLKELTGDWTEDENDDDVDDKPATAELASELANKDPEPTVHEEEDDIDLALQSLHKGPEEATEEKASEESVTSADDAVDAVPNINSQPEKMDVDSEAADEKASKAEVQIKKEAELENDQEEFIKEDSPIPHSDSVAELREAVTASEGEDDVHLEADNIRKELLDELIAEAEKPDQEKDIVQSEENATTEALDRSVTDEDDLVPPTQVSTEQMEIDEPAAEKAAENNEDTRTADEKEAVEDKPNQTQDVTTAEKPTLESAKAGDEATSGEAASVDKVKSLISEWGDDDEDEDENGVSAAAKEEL

[2] = target: Nurf301/Enhancer of bithorax (E(bx)), the specificity subunit of Drosophila NURF (Drosophila (endogenous in S2 cells)) (UniProt Q9W0T1); experiment: as above

Row | binding [1] | binding [2] | Substance
1 | binds |  | Nurf301/Enhancer of bithorax (E(bx)), the specificity subunit of Drosophila NURF (from UniProt Q9W0T1 1-2669)
2 | binds | binds | Washout (Wash), subunit of the DREF/TRF2 complex (from UniProt Q7JW27 1-499)
